According to publication PMC5385344, “Large Diversity of Functional Nanobodies from a Camelid Immune Library Revealed by an Alternative Analysis of Next-Generation Sequencing Data” (Frontiers in Immunology, 2017):
These are yes or no findings as the source states them, for the method shown. Some results given as binding are weak or reduced against the parent protein; the word gives no strength.

The chains behind the UniProt entries cited, without tags or fusion partners. Residues count along the entry.
UniProt P26927, residues 19-711: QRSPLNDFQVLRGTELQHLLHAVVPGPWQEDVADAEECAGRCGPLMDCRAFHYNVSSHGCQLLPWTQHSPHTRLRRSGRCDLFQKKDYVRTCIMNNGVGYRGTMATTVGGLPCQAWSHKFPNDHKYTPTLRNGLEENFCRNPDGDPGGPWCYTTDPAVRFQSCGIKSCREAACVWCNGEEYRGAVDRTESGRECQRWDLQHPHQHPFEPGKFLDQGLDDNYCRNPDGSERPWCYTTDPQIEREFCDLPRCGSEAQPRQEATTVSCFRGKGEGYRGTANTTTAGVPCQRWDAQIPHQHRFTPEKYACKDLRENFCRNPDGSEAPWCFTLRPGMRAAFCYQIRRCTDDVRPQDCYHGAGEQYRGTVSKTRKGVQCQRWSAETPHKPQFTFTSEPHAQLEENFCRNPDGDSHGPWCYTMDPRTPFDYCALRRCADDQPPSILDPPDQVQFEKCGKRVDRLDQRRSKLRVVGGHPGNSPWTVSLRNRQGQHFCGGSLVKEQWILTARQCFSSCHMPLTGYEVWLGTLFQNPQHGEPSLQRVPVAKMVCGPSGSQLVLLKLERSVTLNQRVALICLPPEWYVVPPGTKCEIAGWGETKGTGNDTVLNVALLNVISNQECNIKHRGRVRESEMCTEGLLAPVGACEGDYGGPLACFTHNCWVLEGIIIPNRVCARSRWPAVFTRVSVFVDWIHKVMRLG

Biological target: T1, Recombinant extracellular domain of human RON (rhRON) (human) (UniProt Q04912)
T1 sequence: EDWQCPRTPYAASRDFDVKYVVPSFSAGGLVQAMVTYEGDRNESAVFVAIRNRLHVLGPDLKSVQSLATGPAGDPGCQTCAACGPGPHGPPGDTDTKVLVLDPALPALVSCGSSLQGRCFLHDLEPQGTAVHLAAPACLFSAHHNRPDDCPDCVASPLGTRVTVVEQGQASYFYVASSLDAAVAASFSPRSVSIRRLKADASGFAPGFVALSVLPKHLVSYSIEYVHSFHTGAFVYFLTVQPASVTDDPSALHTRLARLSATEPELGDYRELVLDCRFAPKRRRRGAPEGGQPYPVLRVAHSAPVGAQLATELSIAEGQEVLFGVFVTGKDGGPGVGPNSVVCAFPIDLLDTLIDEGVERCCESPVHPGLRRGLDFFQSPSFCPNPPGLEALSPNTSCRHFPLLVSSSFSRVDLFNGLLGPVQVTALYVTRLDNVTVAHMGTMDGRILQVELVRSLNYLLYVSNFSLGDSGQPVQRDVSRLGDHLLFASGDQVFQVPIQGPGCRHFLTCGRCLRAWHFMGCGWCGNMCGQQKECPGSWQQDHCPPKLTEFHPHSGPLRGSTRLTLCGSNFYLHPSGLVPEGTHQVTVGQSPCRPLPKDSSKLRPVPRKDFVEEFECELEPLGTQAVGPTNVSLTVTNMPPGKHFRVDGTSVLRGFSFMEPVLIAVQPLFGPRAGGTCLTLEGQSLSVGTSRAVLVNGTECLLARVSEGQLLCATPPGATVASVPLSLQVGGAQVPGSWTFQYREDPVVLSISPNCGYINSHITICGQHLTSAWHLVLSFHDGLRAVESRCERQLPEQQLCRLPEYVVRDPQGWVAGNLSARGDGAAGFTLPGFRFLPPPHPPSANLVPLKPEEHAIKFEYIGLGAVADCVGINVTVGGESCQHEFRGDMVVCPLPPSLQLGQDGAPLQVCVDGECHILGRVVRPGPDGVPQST
Experiment: ELISA; ligand competition: rhRON (1 µg/ml) immobilised directly; dilution series of purified nanobodies starting at 1 µM added together with 2 nM biotinylated MSP; MSP detected by extravidin peroxidase; both purified

## macrophage-stimulating protein (MSP) (from UniProt P26927 19-711) (ligand)
  binding: binds
